The whole screen tested about 580,000 compounds, of which about 6,100 (1.1%) were called active. Inconclusive means that the source gave no clear call. Such entries were picked first, then a sample of the others. Calls follow the shape of the dose curve; as a rule, active = well fitted inhibition curve with a large enough effect; inconclusive = small, poorly fitted or top-dose-only effect, or another doubt; inactive = no such curve, though single readings can be large or run the other way. Potencies beside an inconclusive call are fits to weak or partial responses and may not hold up.
What follows are compounds tested against Polyunsaturated fatty acid lipoxygenase ALOX12 (Homo sapiens) (UniProt P18054) (assay: Primary qHTS assay for inhibitors of human arachidonate 12S-lipoxygenase (ALOX12): Round 2). Details: purified 12hLO, xylenol orange hydroperoxide absorbance; series mostly up to 108 µM.
In short: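 Purified human 12hLO at 150 nM in 25 mM Hepes, 0.01% Triton X-100, pH 7.0, preincubated 15 min at room temperature with compound. Reaction started with 40 uM arachidonic acid, 30 min at room temperature. Hydroperoxide measured by Fe-xylenol orange, 573/405 nm absorbance ratio.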
Potency is read from the fitted curve at half-maximal effect.

Protein sequences, listed by entry. Tags and fused reporters are not part of them. Lines headed by an entry give the natural chain unless they say otherwise; changes in a name come on top.
UniProt P18054: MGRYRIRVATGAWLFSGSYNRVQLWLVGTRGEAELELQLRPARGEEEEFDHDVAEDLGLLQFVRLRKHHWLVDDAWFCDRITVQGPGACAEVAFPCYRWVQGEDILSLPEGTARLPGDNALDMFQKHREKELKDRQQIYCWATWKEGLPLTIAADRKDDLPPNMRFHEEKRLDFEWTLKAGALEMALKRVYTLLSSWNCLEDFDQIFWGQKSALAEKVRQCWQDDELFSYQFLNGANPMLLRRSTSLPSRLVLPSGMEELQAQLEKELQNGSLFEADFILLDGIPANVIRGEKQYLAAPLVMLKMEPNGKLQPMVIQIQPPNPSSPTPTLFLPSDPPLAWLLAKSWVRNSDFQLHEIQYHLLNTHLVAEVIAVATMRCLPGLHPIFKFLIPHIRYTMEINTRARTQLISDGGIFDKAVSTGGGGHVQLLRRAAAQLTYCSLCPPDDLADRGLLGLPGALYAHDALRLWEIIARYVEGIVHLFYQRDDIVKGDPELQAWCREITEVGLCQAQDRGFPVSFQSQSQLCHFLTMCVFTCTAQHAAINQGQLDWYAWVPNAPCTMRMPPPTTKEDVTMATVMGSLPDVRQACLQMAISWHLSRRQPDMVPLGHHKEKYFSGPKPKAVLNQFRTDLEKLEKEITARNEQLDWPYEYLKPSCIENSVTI

| Structure (SMILES) | Potency |
| --- | --- |
| COc1ccc(OCCN(C)C(=O)c2cccc3c(=O)c(C)c(-c4ccccc4)oc23)cc1 | inconclusive: 0.224 µM [inhibitor, full curve, poor fit] |
| CN(c1cc(=O)c2ccnc(NCc3ccc4c(c3)OCO4)c2o1)C1CCOCC1 | inactive |
| Cc1ccc2nc3sc(C(=O)NCCCN(C)c4ccccc4)cc3cc2c1 | inconclusive: 112 µM [inhibitor, partial curve, poor fit] |
| CCCNC(=O)CCC(=O)NC(C)c1cccc(Cl)c1 (stereo not drawn) | inactive |
| O=S(=O)(SC1=NCCN1)c1ccccc1 | inconclusive: 50.1 µM [inhibitor, partial curve, poor fit] |
| N=c1n(Cc2ccccc2)c2ccccc2n1CC(O)COc1ccc(Cl)cc1Cl (stereo not drawn) | inconclusive: 44.7 µM [inhibitor, partial curve, poor fit] |
| CC(C)(C)NC(NC(=O)c1ccccc1Cl)C(Cl)(Cl)Cl (stereo not drawn) | inactive |
| CSCc1ccc(C(=O)NCc2ccco2)cc1 | inconclusive: 35.5 µM [inhibitor, partial curve, poor fit] |
| CC(=O)OC1CCN(CCc2ccccc2)C(C)C1C (stereo not drawn) | inconclusive: 44.7 µM [inhibitor, partial curve, poor fit] |
| CCOc1ccccc1Oc1c(C)oc2cc(OC(=O)c3ccc4c(c3)OCO4)ccc2c1=O | inactive |
| C=CCOc1ccc(/C=C2\SC(=S)N(NS(=O)(=O)c3ccccc3)C2=O)cc1 | inconclusive: 35.5 µM [inhibitor, partial curve, poor fit] |
| O=C(CSc1ccccn1)N1CCCC(Nc2ccccc2)C1 (stereo not drawn) | inactive |
| CC1CCCCC1N1CCN(C(=O)c2cccc(F)c2)CC1 (stereo not drawn) | inconclusive: 2.24 µM [inhibitor, full curve, poor fit] |
| COc1ccc(/C(O)=C2/C(=O)C(=O)N(Cc3cccnc3)C2c2ccco2)cc1OC (stereo not drawn) | inconclusive: 6.31 µM [inhibitor, partial curve, poor fit] |
| CCOc1ccc2nc(N/C(N)=N/C(=S)Nc3ccc(C)c(C)c3)nc(C)c2c1 | active: 44.7 µM |
| CN(C)c1ccc(/C=N/NC(=O)Cn2nnc3ccccc32)cc1 | inactive |
| COc1ccc2oc(=O)cc(CN(C)Cc3ccc(C)cc3)c2c1 | inconclusive: 89.1 µM [inhibitor, partial curve, poor fit] |
| Cc1ccc(F)c(NC(=O)/C(C#N)=C(\O)c2ccc(C(C)(C)C)cc2)c1 | inconclusive: 39.8 µM [inhibitor, partial curve, poor fit] |
| Cc1ccccc1Nc1c(-c2ccc(N3CCOCC3)cc2)nc2ccccn12 | inactive |
| O=C(NNS(=O)(=O)c1ccc([N+](=O)[O-])cc1)c1ccncc1 | inconclusive: 4.47 µM [inhibitor, full curve, poor fit] |
| COC(=O)C1=C(C)NC(=O)/C1=C\c1cc(C)n(-c2cc(C)cc(C)c2)c1C | active: 39.8 µM |
| COCc1cc(C)nc2sc(C(=O)Nc3cccc(OC)c3)c(N)c12 | inconclusive: 100 µM [inhibitor, single point] |

| Structure (SMILES) | Potency |
| --- | --- |
| COc1ccc(CNCC(O)(c2ccccc2)c2ccc(F)cc2)cc1OC (stereo not drawn) | inactive |
| COc1cccc(/C=N/NC(=O)Cn2nc([N+](=O)[O-])cc2C)c1 | inactive |
| CCCCn1cnc2c1c(=O)n(CC(=O)Nc1ccccc1C)c(=O)n2CCCC | inconclusive: 112 µM [inhibitor, single point] |
| COc1ccccc1C(=O)C1CCCN(C(=O)c2cn3cc(Cl)ccc3n2)C1 (stereo not drawn) | inconclusive: 112 µM [inhibitor, single point] |
| CN(C)/C=C/C1=CC(=O)CC(C)(C)C1 | inactive |
| COc1ccccc1CCn1cnc(-c2cccc(F)c2)c1CC(C)C | inconclusive: 39.8 µM [inhibitor, partial curve, poor fit] |
| CCOc1cccc(-c2nnc3n2N=C(c2ccc4c(c2)OCO4)CS3)c1 | inconclusive: 100 µM [inhibitor, partial curve, poor fit] |
| O=C(NC(=S)Nc1ccc(N2CCOCC2)cc1)c1cncc(Br)c1 | inconclusive: 112 µM [inhibitor, partial curve, poor fit] |
| Cc1cccc(C(=O)NC(C)C(=O)OC(C)C(N)=O)c1 (stereo not drawn) | inconclusive: 126 µM [inhibitor, partial curve, poor fit] |
| COc1cc(S(=O)(=O)N2CCOCC2)ccc1NC(=O)COC(=O)c1cc(OC)c(OC)c(OC)c1 | inconclusive: 112 µM [inhibitor, single point] |
| COc1ccc(-c2ccc(C(=O)O)o2)c([N+](=O)[O-])c1 | inconclusive: 15.8 µM [inhibitor, full curve] |
| Cc1cc(C)n(CC(C)C(=O)O)n1 (stereo not drawn) | inactive |
| COc1cc(OC)cc(-c2c(C#Cc3ccsc3)c3cc(-c4cccc5[nH]cc(C=O)c45)ccc3n2C)c1 | inconclusive: 50.1 µM [inhibitor, partial curve, poor fit] |
| Cc1c(Cl)cccc1-n1ncc(C(=O)Nc2ccc(Br)cc2F)c1C1CCNCC1 | inconclusive: 50.1 µM [inhibitor, partial curve, poor fit] |
| CCCCNC(=O)c1ccc2c(c1)ncn2-c1cc(OC)ccc1OC | inconclusive: 141 µM [inhibitor, partial curve, poor fit] |
| CCc1ccc2c(c1)C(=O)C(=O)N2CC(=O)Nc1ccc(NC(=O)c2ccccn2)cc1 | inconclusive: 89.1 µM [inhibitor, single point] |
| Cc1nc2ccc(S(=O)(=O)N(CC(=O)N3CCCCC3)Cc3ccccc3)cc2s1 | inactive |
| CC1(C)CC(=O)C2=C(C1)OC1=C(C(=O)CC(C)(C)C1)C2c1cc([N+](=O)[O-])cc([N+](=O)[O-])c1O | inconclusive: 0.562 µM [inhibitor, full curve, poor fit] |
| O=C(OCc1nc2ccc(Cl)cc2n1CCO)c1ccccc1 | inactive |
| COCCCn1c(C)cc(C(=O)CN2c3cccc4cccc(c34)S2(=O)=O)c1C | inactive |
| CNc1cncc(-c2cccc(OC)c2F)n1 | inconclusive: 44.7 µM [inhibitor, partial curve, poor fit] |

Laid out differently: results already given.
Structure (SMILES),Potency
COc1cc(S(=O)(=O)N2CCOCC2)ccc1NC(=O)COC(=O)c1cc(OC)c(OC)c(OC)c1,"inconclusive: 112 µM [inhibitor, single point]"
COc1ccc(-c2ccc(C(=O)O)o2)c([N+](=O)[O-])c1,"inconclusive: 15.8 µM [inhibitor, full curve]"
